Test results taken from patent US20060058231A1.
These are yes or no findings as the source states them, for the method shown. Some binding calls cover weakened binding; strength is not graded here. For part of these data: Tags and fused reporters may be left off the sequences shown.

Sequences of proteins named here, by UniProt entry; tags and fusion partners are left off. A change or cut given only in a name is not applied to a line headed by its entry. Residues count along the entry.
UniProt P27037, residues 20-134: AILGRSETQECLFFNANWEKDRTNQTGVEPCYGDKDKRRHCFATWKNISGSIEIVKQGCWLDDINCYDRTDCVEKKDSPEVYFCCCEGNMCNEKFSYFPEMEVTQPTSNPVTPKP
UniProt P36894, residues 24-152: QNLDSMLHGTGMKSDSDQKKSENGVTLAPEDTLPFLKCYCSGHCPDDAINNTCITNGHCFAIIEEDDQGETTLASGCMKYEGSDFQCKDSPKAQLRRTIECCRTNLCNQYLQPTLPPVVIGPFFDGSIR
UniProt P18075: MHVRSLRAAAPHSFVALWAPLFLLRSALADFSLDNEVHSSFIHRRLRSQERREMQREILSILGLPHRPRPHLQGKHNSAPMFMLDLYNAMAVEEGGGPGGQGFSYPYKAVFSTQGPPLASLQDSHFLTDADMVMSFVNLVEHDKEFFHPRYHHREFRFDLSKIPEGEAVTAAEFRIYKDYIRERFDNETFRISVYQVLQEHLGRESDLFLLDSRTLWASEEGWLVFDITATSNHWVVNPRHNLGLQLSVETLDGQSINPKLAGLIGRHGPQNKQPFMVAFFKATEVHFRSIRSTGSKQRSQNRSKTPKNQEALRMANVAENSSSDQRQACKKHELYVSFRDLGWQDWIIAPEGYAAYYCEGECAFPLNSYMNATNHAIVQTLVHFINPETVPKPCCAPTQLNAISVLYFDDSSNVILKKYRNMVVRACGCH

Assays:
[1] = molecular target: T1, BMPRIb receptor/Fc fusion (R&D Systems) (UniProt O00238); assay: AlphaScreen competition: unlabeled variant titrated against biotinylated Y65N/S120D BMP-7 for BMPRIb-Fc; y axis 0-100 without label [upper right panel with the sheet upright (B by the legend); letter not given]
T1 sequence (looked up): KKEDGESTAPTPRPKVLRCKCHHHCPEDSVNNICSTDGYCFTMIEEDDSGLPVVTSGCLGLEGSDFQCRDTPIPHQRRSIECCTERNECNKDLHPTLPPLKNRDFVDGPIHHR

[2] = molecular target: ActRIIa receptor/Fc fusion (R&D Systems) (UniProt P27037); assay: AlphaScreen competition with biotinylated Y65N/S120D BMP-7
[3] = molecular target: T1, BMPRIb receptor/Fc fusion (R&D Systems); assay: as above
[4] = molecular target: T2, BMPRII receptor/Fc fusion (R&D Systems) (UniProt Q13873); assay: as above
T2 sequence (looked up): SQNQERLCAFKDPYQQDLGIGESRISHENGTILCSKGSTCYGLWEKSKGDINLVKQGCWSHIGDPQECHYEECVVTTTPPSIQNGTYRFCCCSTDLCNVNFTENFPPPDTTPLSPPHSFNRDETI

[5] = molecular target: ActRIIa receptor/Fc fusion (R&D Systems) (UniProt P27037); assay: AlphaScreen competition: unlabeled variant titrated against biotinylated Y65N/S120D BMP-7 for ActRIIa-Fc; y axis 0-100 without label [upper right panel with the sheet upright (B by the legend); letter not given]
[6] = molecular target: T2, BMPRII receptor/Fc fusion (R&D Systems); assay: AlphaScreen competition: unlabeled variant titrated against biotinylated Y65N/S120D BMP-7 for BMPRII-Fc; y axis 0-100 without label [upper right panel with the sheet upright (B by the legend); letter not given]
[7] = molecular target: T2, BMPRII receptor/Fc fusion (R&D Systems); assay: plate direct binding assay, receptor-Fc detection, 12-point dilution of conditioned media
[8] = molecular target: ActRIIa receptor/Fc fusion (R&D Systems) (UniProt P27037); assay: as above
[9] = molecular target: ActRIIa receptor/Fc fusion (R&D Systems) (UniProt P27037); assay: AlphaScreen competition: unlabeled variant titrated against biotinylated Y65N/S120D BMP-7 for ActRIIa-Fc; y axis 0-100 without label [lower left panel with the sheet upright (C by the legend); letter not given]
[10] = molecular target: T1, BMPRIb receptor/Fc fusion (R&D Systems); assay: AlphaScreen competition: unlabeled variant titrated against biotinylated Y65N/S120D BMP-7 for BMPRIb-Fc; y axis 0-100 without label [lower left panel with the sheet upright (C by the legend); letter not given]
[11] = molecular target: T2, BMPRII receptor/Fc fusion (R&D Systems); assay: AlphaScreen competition: unlabeled variant titrated against biotinylated Y65N/S120D BMP-7 for BMPRII-Fc; y axis 0-100 without label [lower left panel with the sheet upright (C by the legend); letter not given]
[12] = molecular target: ActRIIa receptor/Fc fusion (R&D Systems) (UniProt P27037); assay: AlphaScreen competition: unlabeled BMP-7 titrated against biotinylated Y65N/S120D BMP-7 for ActRIIa-Fc; y axis 0-100 without label [upper left panel with the sheet upright (A by the legend); letter not given]
[13] = molecular target: T2, BMPRII receptor/Fc fusion (R&D Systems); assay: AlphaScreen competition: unlabeled BMP-7 titrated against biotinylated Y65N/S120D BMP-7 for BMPRII-Fc; y axis 0-100 without label [upper left panel with the sheet upright (A by the legend); letter not given]
[14] = molecular target: T1, BMPRIb receptor/Fc fusion (R&D Systems); assay: AlphaScreen competition: unlabeled BMP-7 titrated against biotinylated Y65N/S120D BMP-7 for BMPRIb-Fc; y axis 0-100 without label [upper left panel with the sheet upright (A by the legend); letter not given]
[15] = molecular target: ActRIIa receptor/Fc fusion (R&D Systems) (UniProt P27037); assay: plate direct binding assay, BMP-7 from conditioned medium captured by anti-BMP-7 antibody, receptor-Fc titrated in 12 points; EC50 drawn as a bar, no number given
[16] = molecular target: BMPRIa receptor/Fc fusion (R&D Systems) (UniProt P36894); assay: as above
[17] = molecular target: ActRIIa receptor/Fc fusion (R&D Systems) (UniProt P27037); assay: AlphaScreen competition: unlabeled variant titrated against biotinylated Y65N/S120D BMP-7 for ActRIIa-Fc; y axis 0-100 without label [lower right panel with the sheet upright (D by the legend); letter not given]
[18] = molecular target: T3, ActRIIb receptor/Fc fusion (R&D Systems) (UniProt Q13705); assay: fluorescence polarization and intensity; labeled BMP-7 added to serial dilutions of receptor/Fc
T3 sequence (looked up): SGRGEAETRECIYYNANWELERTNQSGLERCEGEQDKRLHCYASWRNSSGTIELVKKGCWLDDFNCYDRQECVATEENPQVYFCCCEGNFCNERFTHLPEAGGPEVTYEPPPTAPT

[19] = molecular target: ActRIIa receptor/Fc fusion (R&D Systems) (UniProt P27037); assay: as above
[20] = molecular target: BMPRIa receptor/Fc fusion (R&D Systems) (UniProt P36894); assay: as above
[21] = molecular target: ActRIIa receptor/Fc fusion (R&D Systems) (UniProt P27037); assay: fluorescence anisotropy, single point with 10 uM ActRIIa
[22] = molecular target: T3, ActRIIb receptor/Fc fusion (R&D Systems); assay: fluorescence anisotropy, labeled BMP-7 added to serial dilutions of receptor/Fc fusion (x axis [receptor] uM)
[23] = molecular target: ActRIIa receptor/Fc fusion (R&D Systems) (UniProt P27037); assay: as above
[24] = molecular target: BMPRIa receptor/Fc fusion (R&D Systems) (UniProt P36894); assay: as above

Measured: binding

BMP-7 variant 565 (Y65N/F93T/R129D) (from UniProt P18075 293-431 at identity 0.97)) (ligand)
binds: [1] | [2] | [3] | [4] | [5] | [6]

BMP-7 variant Q53G (from UniProt P18075 293-431 at identity 0.99)) (ligand)
binds: [7]

BMP-7 variant I86D (from UniProt P18075 293-431 at identity 0.99)) (ligand)
binds: [8]

BMP-7 variant 526 (K39S/S120D/R134E) (from UniProt P18075 293-431 at identity 0.97)) (ligand)
binds: [9] | [2] | [3] | [4] | [10] | [11]

recombinant human BMP-7 (R&D Systems) (from UniProt P18075 293-431 at identity 0.99)) (ligand)
binds: [2] | [3] | [4] | [12] | [13] | [14]

BMP-7 variant M23N (from UniProt P18075 293-431 at identity 0.99)) (ligand)
binds: [7]

BMP-7 variant 504 (Y65N/S120D) (from UniProt P18075 293-431 at identity 0.98)) (ligand)
binds: [15] | [16] | [2] | [17]

BMP-7 variant Q53H (from UniProt P18075 293-431 at identity 0.99)) (ligand)
binds: [8]

fluorescently labeled BMP-7 (variant Y65N/S120D labeled with AlexaFluor 568 or with C6-FXS) (from UniProt P18075 293-431 at identity 0.98)) (ligand)
binds: [18] | [19] | [20]

Alexa568-labeled Y65N/S120D BMP-7 (from UniProt P18075 293-431 at identity 0.98)) (ligand)
binds: [21] | [22] | [23] | [24]
